Earlier results as cited in patent US9694072B2, “Methods for diagnosing and treating neuroendocrine cancer” (Trustees of Dartmouth College, priority 2005, dated 2017).
Some entries share one result that the patent states for a list of compounds. At least one structure is not confirmed: it was looked up by name or label, or the drawing left a doubt.

Molecular target: glycine binding site on the NMDA receptor (Homo sapiens, UniProt Q05586)
Details: read-out: affinity displacing glycine binding; cited from earlier work

O=C(Nc1ccccc1)N[C@@H]1C[C@@H](C(=O)O)Nc2cc(Cl)cc(Cl)c21 [L-689,560]
Ki: < 10 nM
